Results on 42 sequences are retold here after publication PMC7819943, “Rice protein-binding microarrays: a tool to detect cis-acting elements near promoter regions in rice”.

Amino acid sequences for entries named in this document (tags omitted).
UniProt Q0JBA9, entry or part of it: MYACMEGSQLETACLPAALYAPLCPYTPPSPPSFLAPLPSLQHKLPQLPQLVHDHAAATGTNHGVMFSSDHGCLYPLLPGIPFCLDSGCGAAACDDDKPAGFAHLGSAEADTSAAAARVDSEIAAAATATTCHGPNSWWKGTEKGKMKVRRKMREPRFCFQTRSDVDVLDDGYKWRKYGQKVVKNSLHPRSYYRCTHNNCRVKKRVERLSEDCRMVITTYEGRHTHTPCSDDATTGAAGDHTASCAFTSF

Some of the results follow.

For the assay, the target named is OsWRKY34 (Oryza sativa, UniProt Q0JBA9 1-250). In words: protein-binding microarray (RPBM); PBS, 2% BSA, 51.3 ng/ul salmon testes DNA, 50 uM zinc acetate, 200 nM TF, 25 C, 1 h; high values mean tight binding. The settings on record: protein: recombinant; tags: N-terminal polyhistidine and DsRed monomer fusion (pET32a); label: CyDye5-dUTP incorporated in the synthesized complementary strand; 3' TTTTT single-stranded linker to array surface; dsDNA, one strand shown. In short, it runs like this: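 Polyhistidine-tagged DsRed fusions of transcription factors, joined at the N-terminus, were expressed in E. coli BL21-CodonPlus and isolated on Ni–NTA. They were incubated at 200 nM for 1 h at 25 °C on a custom Agilent array, double-stranded and BSA-blocked, in PBS with 2% BSA, salmon testes DNA and 50 µM zinc acetate. The binding signal is per-feature fluorescence intensity (arbitrary units) read on an Axon 4000B scanner after washing.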
In the case of “TTTTGATTACTCATATAATCACCTTGTTATTTCTTTATATCGGAGTCACCTAGTGCAG”, the binding signal was 9840 fluorescence intensity (a.u.). Next, “ACAGAGCATGACACCTCAGCATTTTTTACCTTTCCTCTTCCGGAGTCACCTAGTGCAG”: 9210 fluorescence intensity (a.u.); “ATCTTCCAAATCGTTTCATATTCGTGTTTACTGGAATAATCGGAGTCACCTAGTGCAG”: 9200 fluorescence intensity (a.u.); “ACCTGACTAGCAAGCAACAATCATGTAACTTTTCACCTTTCGGAGTCACCTAGTGCAG”: 8070 fluorescence intensity (a.u.). Next, “TAAGTTTTCATTCGACACATTCTCAGTTACCTCTTCGAAACGGAGTCACCTAGTGCAG”: 10300 fluorescence intensity (a.u.); “GAGCTTTTCAAAGTGGGTATTCTTATATATCACCGGTCTTCGGAGTCACCTAGTGCAG”: 8030 fluorescence intensity (a.u.); “CACTGTGTGTGATCTTTTGGTCCTGCCTTCCTGTTGTACCCGGAGTCACCTAGTGCAG”: 9920 fluorescence intensity (a.u.). The figure for “CTTTCTTATTGACTATTTTATTATTTGAGGTCATTTAGGGCGGAGTCACCTAGTGCAG” is 9310 fluorescence intensity (a.u.).

“CAGAATCTAGTGCATGCCCTCACTTCATTCATCGCAATTTCGGAGTCACCTAGTGCAG”: the binding signal was 8040 fluorescence intensity (a.u.).

With “CATCGCTGACTTCTCTATTGCTCATTGTTGTTGTGTTGTTCGGAGTCACCTAGTGCAG”, the binding signal is 13300 fluorescence intensity (a.u.).

Take “CTACAGTGTTCTGGTCAAATCTGAGCTGTTTTTCTTTGATCGGAGTCACCTAGTGCAG”: the binding signal is 11400 fluorescence intensity (a.u.). Next, “TTCCGGCCGCCTCCTAGGGTTTCGCCCGCGCTCCGCCACCCGGAGTCACCTAGTGCAG”: 8340 fluorescence intensity (a.u.); “GCTCCTGCTTTCCCGAGTCCCTGCAAACCCGACACCATCGCGGAGTCACCTAGTGCAG”: 10600 fluorescence intensity (a.u.).

As for “TTGGGCCGTGCAATCTAACCCGTACTCTTTCTGTATCATCCGGAGTCACCTAGTGCAG”, the binding signal was 11600 fluorescence intensity (a.u.). “GGCTTGCTGGGGTGCGTCAATGAGGTGGTGGCGGCGGTGGCGGAGTCACCTAGTGCAG”: the binding signal is 12000 fluorescence intensity (a.u.). Consider “ACTCCGCTTCTCCACCGACGCCACCACTGTCCTTCTCGCTCGGAGTCACCTAGTGCAG”, for which the binding signal was 12100 fluorescence intensity (a.u.). The figure for “ATTTTCACCGTGTCTACATCATTTCTTTACAAAAGCATTTCGGAGTCACCTAGTGCAG” is 10500 fluorescence intensity (a.u.); for “GCCACTTATCCGCTAAGCACGTTATATGGCGGTGCACTGTCGGAGTCACCTAGTGCAG” it is 8660 fluorescence intensity (a.u.); for “GTACTACTCAGGTCACTATAACCACTAGTCTACATGTCCTCGGAGTCACCTAGTGCAG” it is 9000 fluorescence intensity (a.u.). On to “GTGGGGCCCACCTGTCGGGGCGGTTGATGGGCTCTTCTAGCGGAGTCACCTAGTGCAG”, for which the binding signal is 8370 fluorescence intensity (a.u.).

“TATAGGGACGGAGCGAGTATTTTGCAACTCACTTCTCCGACGGAGTCACCTAGTGCAG”: the binding signal was 8100 fluorescence intensity (a.u.). With “TCTATTTTATTTGGGTGGGGATAGTTTTAGTGGGAATTTGCGGAGTCACCTAGTGCAG”, the binding signal is 24200 fluorescence intensity (a.u.).

Regarding “CTAAATTAATGGTCGCTTTGACTTTTTTTATGTAATGTTTCGGAGTCACCTAGTGCAG”, the binding signal is 14700 fluorescence intensity (a.u.). Next, “AGAGAGGGTGTTGTGAATTGGGAATTTCGGGATTATTGCTCGGAGTCACCTAGTGCAG”: 11800 fluorescence intensity (a.u.); “CGACTTGTCAGCGGCCTCCATCGCGTGTGCCTTTCTCAGTCGGAGTCACCTAGTGCAG”: 9480 fluorescence intensity (a.u.); “ACTTTCCGCGTCTTCTTCGTCTTCGTCTTCGTCCTCCTCCCGGAGTCACCTAGTGCAG”: 12100 fluorescence intensity (a.u.). The figure for “AACGGTCAAACATGTGCTAAAAAGTCAACGGTGTCAAATACGGAGTCACCTAGTGCAG” is 18600 fluorescence intensity (a.u.); for “TTTACGGTTTGGGGAATTGAGAGTCGTACTTAAGGCTTATCGGAGTCACCTAGTGCAG” it is 9370 fluorescence intensity (a.u.); for “CTCTCTCTTCGCCCGTGACTCCATCCCCTCCCTAGCCGCTCGGAGTCACCTAGTGCAG” it is 8190 fluorescence intensity (a.u.).

For the sequence “GCAAACCCACGTCTACCCAGCCTCACTCTACCCAACACCCCGGAGTCACCTAGTGCAG”, the binding signal was 8460 fluorescence intensity (a.u.). The figure for “ACTGTTGACCAGCAGTGCTGGGTAATGATTTTCCCGGATGCGGAGTCACCTAGTGCAG” is 10300 fluorescence intensity (a.u.).

Consider “TGAAATGAAATGAAATGAAATGGGGTTGGGTAATTAAGCTCGGAGTCACCTAGTGCAG”, for which the binding signal was 9610 fluorescence intensity (a.u.). Next, “GCCGCTTGGGCCGCTCTATGCTGCTCACCGTCTGTCGTAGCGGAGTCACCTAGTGCAG”: 8740 fluorescence intensity (a.u.); “CTCTCTATTTGTTGACCAGTCTGATTTTCGTCCCTAACCGCGGAGTCACCTAGTGCAG”: 9360 fluorescence intensity (a.u.); “TTACGATTTCGTCTAACCGATCTATATTTTTGCTATTTTCCGGAGTCACCTAGTGCAG”: 10900 fluorescence intensity (a.u.).

Consider “CACCCGTGCATCCCTACCCGCTGCTGGCCCCACCCGTCATCGGAGTCACCTAGTGCAG”, for which the binding signal was 14000 fluorescence intensity (a.u.). In the case of “GCACGAGCCTTCCACGTGGCAACGATTCGCCATCATTTTACGGAGTCACCTAGTGCAG”, the binding signal was 8990 fluorescence intensity (a.u.).

Turning to “GGTGAATGGATCATCCACCCACTACTCCACCACTACACCACGGAGTCACCTAGTGCAG”, the binding signal is 8190 fluorescence intensity (a.u.). Next, “AAATTTTTCCTGACTGATCTCACCACCAGCTAGGTTTCCTCGGAGTCACCTAGTGCAG”: 8410 fluorescence intensity (a.u.); “CAGTTTACCCTGCGGGCTACACCCATGTCCCCTTCACCTTCGGAGTCACCTAGTGCAG”: 8200 fluorescence intensity (a.u.); “GCCCATTTCTGCTTTATTCGAGGATCGTATCCGGTGCCCGCGGAGTCACCTAGTGCAG”: 8530 fluorescence intensity (a.u.). The figure for “ACCGTGAACACCGTCCCGTCCCCACTCCTCGCCGCGCTGCCGGAGTCACCTAGTGCAG” is 8140 fluorescence intensity (a.u.).
